Measurements published in publication PMC12540644.
No constants are given. Whether binding was seen depends on the method and setting. Binding seen in cells or lysates may run through a third protein. Some binding calls cover weakened binding; strength is not graded here. For some of these results: Tags and fused reporters may be left off the sequences shown. Each block holds one molecule with its values, some of them ahead of it.

Tests used:
GST–14-3-3β (mouse) = target: T1, GST–14-3-3β (mouse) (UniProt Q9CQV8); experiment: pull-down; GST–14-3-3β on Glutathione Sepharose 4B; EGFP-tagged proteins in HeLa cell lysates; immunoblotting; only the target purified
T1 sequence: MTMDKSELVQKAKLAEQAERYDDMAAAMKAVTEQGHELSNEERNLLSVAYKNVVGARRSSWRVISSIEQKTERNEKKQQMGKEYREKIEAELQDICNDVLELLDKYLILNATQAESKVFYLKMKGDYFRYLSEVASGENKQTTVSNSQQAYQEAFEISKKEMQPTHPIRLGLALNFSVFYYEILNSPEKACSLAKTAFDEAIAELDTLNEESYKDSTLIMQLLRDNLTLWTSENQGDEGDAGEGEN

KGN–14-3-3β (mouse) = target: T2, KGN–14-3-3β (mouse) (UniProt Q9CQV8); experiment: split reporter; BiFC (Kusabira-Green) between KGN–14-3-3β and KGC–A/B/C/DA-Raf in living MDCK cells, 48 h after transfection, 37°C
T2 sequence: T1 sequence

- binding (GST–14-3-3β (mouse)): binds
Molecule: EGFP–C-Raf (from UniProt P04049 1-648)

- binding (KGN–14-3-3β (mouse)): binds
Molecule: KGC–C-Raf (from UniProt P04049 1-648)

- binding (GST–14-3-3β (mouse)): binds
B1: EGFP–A-Raf (protein, UniProt P04627 1-604)
chain: MEPPRGPPVSGAEPSRAVGTVKVYLPNKQRTVVTVREGMSVYDSLDKALKVRGLNQDCCVVYRLIKGRKTVTAWDTAIAPLDGEELIVEVLEDVPLTMHNFVRKTFFSLAFCDFCLKFLFHGFRCQTCGYKFHQHCSSKVPTVCVDMSTNRRQFYHSIQDLSGGSRQQEAPSNLSVNELLTPQGPSPFTQQRDQEHFSFPAPANPPLQRIRSTSTPNVHMVSTTAPMDSSLMQFTAQSFSTDAAGRGGDGAPRGSPSPASVSSGRKSPHSKLPSEQRERKSLADEKKKVKNLGYRDSGYYWEVPPSEVQLLKRIGTGSFGTVFRGRWHGDVAVKVLKVAQPTAEQAQAFKNEMQVLRKTRHVNILLFMGFMTRPGFAIITQWCEGSSLYHHLHVADTRFDMVQLIDVARQTAQGMDYLHAKNIIHRDLKSNNIFLHEGLTVKIGDFGLATVKTRWSGAQPLEQPSGSVLWMAAEVIRMQDPNPYSFQSDVYAYGVVLYELMTGSLPYSHIGSRDQIIFMVGRGYLSPDLSKIFSNCPKAMRRLLTDCLKFQREERPLFPQILATIELLQRSLPKIERSASEPSLHRTQADELPACLLSAARLVP

- binding (KGN–14-3-3β (mouse)): binds
B2: KGC–A-Raf (protein, UniProt P04627 1-604)
chain: B1 chain
